Results on 1 molecule are retold here after doi:10.1101/2023.12.22.573140.

These are yes or no findings as the source states them, for the method shown.

In the experiment the target is TGM6 domain 3 (TGM6-D3) (Heligmosomoides polygyrus). Briefly: ITC.

B1: BMP type II receptor (BMPRII) extracellular domain (receptor, UniProt Q13873 27-150)
chain: SQNQERLCAFKDPYQQDLGIGESRISHENGTILCSKGSTCYGLWEKSKGDINLVKQGCWSHIGDPQECHYEECVVTTTPPSIQNGTYRFCCCSTDLCNVNFTENFPPPDTTPLSPPHSFNRDET
On to B1, for which the binding entry is on record as “no binding”.
